From PubChem BioAssay AID2685 (National Center for Advancing Translational Sciences (NCATS), 2010)
This is one part of the list. These are further read-outs of the screen, such as a control signal, another cell line or another target. No call is given for them. Most of these compounds were active or inconclusive in the main read-out, so they are no random draw. The note in brackets gives the kind of curve behind each potency; many fits are weak.

Assay: qHTS Assay for Lipid Storage Modulators in Drosophila S3 Cells;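 on cell number change: cells counted by Cell Tracker Red CMTPX staining in the red channel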
Conditions: BODIPY lipid droplet fluorescence, 18-24 h; for cell number change: measured here: cell count max response, cells fed with added oleic acid
Method in brief: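 Drosophila S3 cells got compounds at several concentrations plus oleic acid (400 uM solution). Laser-scanning cytometry with 488 nm excitation read lipid droplets at 500-530 nm and cells at 575-640 nm. Percent activity was relative to 20 uM Triacsin C.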

[1] = measured here: cell number channel AC50, cells fed with added oleic acid
[2] = measured here: lipid fluorescence (Fed channel) AC50, cells fed with added oleic acid

Row | SMILES | cell number change | AC50 [1] | AC50 [2]
1 | CC(=O)Nc1ccc(N2C(=O)CSC2c2ccc(F)cc2)cc1 (configuration not stated) | 4.26% |  | 
2 | Cn1c(SCCN2CCCCC2)nnc1-c1ccccc1Br | -66.8% | 20.6 µM [falling, partial curve] | 20.6 µM [falling, single point]
3 | COc1ccc(C2C(C#N)=C(N)Oc3cccc(O)c32)cc1 (configuration not stated) | -3.23% |  | 29.1 µM [rising, single point]
4 | CCOC(=O)c1cc2sccc2n1CC(=O)N1CCCC1 | 36.8% | 16.4 µM [rising, partial curve] | 4.11 µM [rising, single point]
5 | COc1ccc(C2Oc3ccccc3N2C(C)=O)cc1 (configuration not stated) | 61.1% | 18.4 µM [rising, single point] | 20.6 µM [rising, single point]
6 | COCCNC(=S)N/N=C(\C)c1ccc(Cl)c(Cl)c1Cl | 18.3% | 0.00461 µM [rising, full curve, poor fit] | 
7 | c1coc(-c2nnc3n2C2(CCCC2)Cc2ccccc2-3)c1 |  | 1.64 µM [rising, partial curve] | 
8 | CCCC(=O)Nc1ccccc1-c1nnc(SCC)[nH]c1=O | -23.4% |  | 29.1 µM [falling, single point]
9 | c1ccc(-c2csc3ncn4nnnc4c23)cc1 |  | 0.92 µM [rising, partial curve] | 1.03 µM [rising, partial curve]
10 | COc1cc(/C=C2/SC(=S)N(CCC(=O)Nc3ccc(C(=O)O)cc3)C2=O)cc(OC)c1OC | 18.4% |  | 29.1 µM [rising, single point]
11 | COc1cccc(OC)c1C(=O)NC(=S)Nc1ccc(N2CCOCC2)c(Cl)c1 | 22% |  | 
12 | CCOc1ccc(OCc2ccc(C(=O)Nc3cccc(C)n3)o2)cc1 |  |  | 0.58 µM [falling, full curve, poor fit]
13 | CC(C)N1CCc2c(sc(NC(=O)c3ccc(S(=O)(=O)N4CCCCC4C)cc3)c2C(N)=O)C1 (configuration not stated) | -59.5% | 1.84 µM [falling, partial curve] | 1.46 µM [falling, full curve]
14 | Cc1c(C(=O)N2CCOCC2)sc2ncnc(N3CCc4ccccc4C3)c12 | -16.6% |  | 16.4 µM [rising, single point]
15 | COC(=O)C(C)Sc1nnc(Cc2cc(=O)[nH]c(=O)[nH]2)n1-c1ccc(Cl)cc1 (configuration not stated) | 53.4% | 23.1 µM [rising, partial curve, poor fit] | 
16 | CCSc1nc2n(n1)C(c1cccc(F)c1)C1=C(CCCC1=O)N2 (configuration not stated) | -1.96% |  | 7.31 µM [falling, single point]
17 | Cc1ccc(O)c(NC(=O)CCC2CCCCC2)c1 | -33.1% |  | 
18 | Clc1nc(NCc2ccco2)nc(N2CCCCC2)n1 | 40.7% | 8.2 µM [rising, partial curve, poor fit] | 
19 | Brc1ccc(N=NNc2ccccc2)cc1 | -59% | 25.9 µM [falling, partial curve] | 16.4 µM [falling, partial curve]
20 | COc1ccc(N(C(=O)c2ccco2)C(C(=O)NC2CCCC2)c2ccc(OC)c(OC)c2)cc1 (configuration not stated) | 14.3% |  | 29.1 µM [rising, single point]
21 | COc1ccc(NS(=O)(=O)c2ccc3oc(SCc4ccc(F)cc4)nc3c2)cc1 | 4.75% |  | 0.411 µM [rising, full curve, poor fit]

Row | SMILES | cell number change | AC50 [1] | AC50 [2]
22 | CCn1c(/C=N/n2cnnc2)nc2ccccc21 | 29.9% |  | 0.651 µM [falling, full curve, poor fit]
23 | CCC(=O)N1CC2(c3ccccc3)CN(C(=O)CC)CC(c3ccccc3)(C1)C2=O | -31.5% | 35.5 µM [falling, single point] | 35.5 µM [falling, single point]
24 | CC(C)c1ccc(NC2CCCN(C(=O)CCc3cn[nH]c3)C2)cc1 (configuration not stated) | 22.3% | 0.82 µM [rising, full curve, poor fit] | 
25 | COc1nc(-c2ccccc2)c2cc(C)ccc2n1 | 12.4% |  | 7.31 µM [rising, partial curve]
26 | CS(=O)(=O)N1CCN(C(=O)Cc2cccs2)CC1 | -24.4% |  | 5.8 µM [falling, full curve, poor fit]
27 | Cc1ccc(NC(=O)CSCC(=O)NC2CCCCC2)cc1 | 3.05% |  | 0.82 µM [falling, full curve, poor fit]
28 | CC(C)COC(=O)n1ccc(C(=O)N2CCCCC2)n1 | -3.6% |  | 16.4 µM [falling, single point]
29 | Cc1ccc(NC(=O)Nc2cccc(C(F)(F)F)c2)nc1 | -49.1% | 0.92 µM [falling, full curve] | 0.651 µM [falling, single point]
30 | CCOC(=O)c1c(-c2cccs2)csc1NC(=O)C(C)(C)C | -49.8% |  | 23.1 µM [falling, single point]
31 | Cc1cc(NC(=O)Cn2c(=O)c3c(ncn3CC(C)C)n(Cc3ccccc3)c2=O)no1 | -1.47% |  | 
32 | O=C1CN(C(=O)CSc2nc(-c3ccc(Cl)cc3)cs2)c2ccccc2N1 | 34.4% | 6.51 µM [rising, single point] | 9.2 µM [rising, partial curve]
33 | COc1ccc(NC(=O)CN(C)C(=O)c2cnc(Cl)c(Cl)c2)cc1 | -1.28% |  | 
34 | Cc1cc(C)c2c(=O)[nH]n(C(C)C)c2n1 | -18.6% |  | 2.59 µM [falling, full curve]
35 | CC(NC(=O)C1CCCN(C(=O)c2ccc(Cl)cc2)C1)c1cccc(C(F)(F)F)c1 (configuration not stated) | -9.64% |  | 2.59 µM [rising, single point]
36 | O=C(CSc1ccsc1[N+](=O)[O-])NCc1ccco1 |  |  | 6.51 µM [falling, single point]
37 | COc1ccccc1NC(=O)c1cnc(SC)nc1 | 7.04% |  | 29.1 µM [rising, single point]
38 | Clc1ccc(/C=C\c2nccc3c2[nH]c2ccccc23)cc1 | -34.3% | 20.6 µM [falling, single point] | 29.1 µM [falling, single point]
39 | Nc1c(Cl)cc(-c2cn(CCC(=O)O)c(-c3ccncc3)n2)cc1Cl | 14.7% |  | 
40 | COC(=O)c1ccc(NS(=O)(=O)c2ccc(Cl)cc2)o1 | -36.9% | 23.1 µM [falling, single point] | 29.1 µM [falling, single point]
41 | COc1cc(OC)c(OC)cc1CNc1cc(C)ccc1OC | -19.9% |  | 
42 | Cc1cc(-c2ccc(F)cc2)nc2cc(C(N)=O)nn12 | 11.2% |  | 6.51 µM [rising, single point]

Row | SMILES | cell number change | AC50 [1] | AC50 [2]
43 | CCCCOC(=O)Nc1ccc(S(=O)(=O)Nn2cnnc2)cc1 | 7.5% |  | 23.1 µM [falling, single point]
44 | CC(C)C(=O)N1N=C2CCCCC2C1(O)C(F)(F)F (configuration not stated) | 24.4% |  | 6.51 µM [rising, single point]
45 | COc1ccc(S(=O)(=O)N(CC(=O)NCC2CCCO2)C2CCCCC2)cc1OC (configuration not stated) | -5.26% |  | 
46 | CN1CCCN(Cc2ccc(Cl)cc2Cl)CC1 | -11% | 0.461 µM [falling, full curve, poor fit] | 
47 | Cc1ccc(S(=O)(=O)c2nnn3c2nc(NC2CCN(Cc4ccccc4)CC2)c2ccccc23)cc1C | 32.3% | 0.0291 µM [rising, partial curve] | 
48 | O=C(CCCn1c(=S)[nH]c2ccccc2c1=O)NCc1ccco1 | -11.4% |  | 
49 | C=CCNC(=O)[C@H]1N2C(=O)c3ccccc3C2SC1(C)C (some centres not stated) | 79.6% | 20.6 µM [rising, single point] | 0.58 µM [falling, single point]
50 | COc1cccc(-n2cc(CNC(=O)C3CCC(=O)N(C4CC4)C3)cn2)c1 (configuration not stated) | 1.15% |  | 
51 | COc1ccc(Cl)cc1NC(=S)NCc1cccs1 | 119% | 29.1 µM [rising, single point] | 29.1 µM [rising, single point]
52 | CCOC(=O)N1CCN(CC(=O)NC(=O)Nc2ccc3c(c2)OCCO3)CC1 | -49.9% | 20.6 µM [falling, partial curve] | 29.1 µM [falling, single point]
53 | O=C(NC1CCN(Cc2ccccc2)CC1)c1cccc(OC(F)F)c1 | 10.9% |  | 0.82 µM [rising, full curve, poor fit]
54 | CCOc1ccccc1NC(=O)/C(C#N)=C/c1c(C)nn(-c2ccc(F)cc2)c1Cl | 0.235% |  | 20.6 µM [rising, single point]
55 | Cc1cc(CCCCCCCCc2cc(C)cc(=O)o2)oc(=O)c1 | 52.8% | 10.3 µM [rising, partial curve] | 32.6 µM [falling, partial curve, poor fit]
56 | CCc1ccc(NC(=S)N2CCNC(=O)C2CC(=O)OC)cc1 (configuration not stated) | 1.02% |  | 0.651 µM [falling, full curve, poor fit]
57 | COC(=O)N(C)c1ccccc1C(=O)N1CCOCC1 | 17.4% | 0.291 µM [rising, partial curve, poor fit] | 29.1 µM [falling, single point]
58 | COc1ccc(NC(=O)COc2coc(CN3CCN(c4ccccc4)CC3)cc2=O)cc1 | -0.321% |  | 
59 | O=C(NCCc1c[nH]c2ccccc12)C(F)(F)F | -20% | 0.517 µM [falling, full curve, poor fit] | 
60 | CCc1ccccc1NC(=O)Cn1ccn(-c2ccc(OC)cc2)c(=O)c1=O | -8.9% |  | 2.06 µM [rising, full curve]
61 | CC(C)N(Cc1nc(-c2ccc(Cl)cc2)no1)C(=O)CN(C)S(=O)(=O)c1ccc(Cl)cc1 | 1.08% |  | 

4 compounds already listed, sorted by heavy-atom count, low to high:
Row | SMILES | cell number change | AC50 [1] | AC50 [2]
25 | COc1nc(-c2ccccc2)c2cc(C)ccc2n1 | 12.4% |  | 7.31 µM [rising, partial curve]
7 | c1coc(-c2nnc3n2C2(CCCC2)Cc2ccccc2-3)c1 |  | 1.64 µM [rising, partial curve] | 
16 | CCSc1nc2n(n1)C(c1cccc(F)c1)C1=C(CCCC1=O)N2 (configuration not stated) | -1.96% |  | 7.31 µM [falling, single point]
54 | CCOc1ccccc1NC(=O)/C(C#N)=C/c1c(C)nn(-c2ccc(F)cc2)c1Cl | 0.235% |  | 20.6 µM [rising, single point]
